In patent US6344505B1, “Mono- and bis-benzotriazolyldihydroxybiaryl UV absorbers” (Cytec Industries Inc., priority 1999, dated 2002):

What was measured:
[1] = Stabilization of polycarbonate plaques, Xenon Arc Weatherometer ASTM G-26, time to ΔYI = 5; settings: level 0.35 %; hours of exposure for an increase in 5 Yellowness Index units
[2] = Xenon weathering (SAE J1960 automotive exterior) of acrylic melamine coating; settings: UV absorber 2% on total resin solids
[3] = Stabilization of a multilayer polycarbonate article, xenon-arc weatherometer ASTM G-26; settings: level 7.0 (wt. %) in 2 mil polycarbonate film laminated on unstabilized plaque
[4] = Stabilization of polycarbonate plaques, Xenon Arc Weatherometer ASTM G-26, time to YI = 14; settings: level 0.35 %, 0.1% Mark 2112 phosphite; hours of exposure for Yellowness Index to reach 14 units
[5] = Stabilization of polypropylene films, Xenon Arc Weatherometer; settings: 0.5 % stabilizer in 0.5 mil polypropylene film

| SMILES | Time to ΔYI = 5 [1] | Time to YI = 9 [3] | Time to Y1 = 14 [4] | also measured |
| --- | --- | --- | --- | --- |
| CC(C)(C)CC(C)(C)c1cc(-c2cc(C(C)(C)CC(C)(C)C)cc(-n3nc4ccccc4n3)c2O)c(O)c(-n2nc3ccccc3n2)c1 [COMPOUND 1, 3,3′-bis-(2H-benzotriazol-2-yl)-5,5′-di-tert-octyl-1,1′-biphenyl-2,2′-diol] | 1014 h | 1765 | 1435 h | percent gloss retention ([2]; 999 hours exposure): 96%; percent gloss retention ([2]; 1995 hours exposure): 91%; percent gloss retention ([2]; 3900 hours exposure): 54%; percent gloss retention ([2]; 4383 hours exposure): 50%; percent gloss retention ([2]; 4838 hours exposure): 38%; Complete Loss of Physical Properties ([5]; cracking upon flexing): 1030 h; 0.5 Carbonyl Change ([5]; time for 0.5 change in carbonyl absorption at 1715 cm-1): 900 h |
| Cc1cc(-c2cc(C)cc(-n3nc4ccccc4n3)c2O)c(O)c(-n2nc3ccccc3n2)c1 [COMPOUND 4, 3,3′-bis-(2H-benzotriazol-2-yl)-5,5′-di-methyl-1,1′-biphenyl-2,2′-diol] | – | – | 1430 h | – |
| Oc1c(-c2cccc(-n3nc4ccccc4n3)c2O)cccc1-n1nc2ccccc2n1 [COMPOUND 5, 3,3′-bis-(2H-benzotriazol-2-yl)-1,1′-biphenyl-2,2′-diol] | 1271 h | 2205 | 1554 h | – |
| CC(C)(C)c1cc(-n2nc3ccc(Cl)cc3n2)c(O)c(C(C)(C)C)c1 [Eversorb ® 75, 2-(2H-6-Chlorobenzotriazol-2-yl)-4,6-di-tert-butylphenol] | 1121 h | – | – | – |
| CC(C)(C)CC(C)(C)c1cc(Cc2cc(C(C)(C)CC(C)(C)C)cc(-n3nc4ccccc4n3)c2O)c(O)c(-n2nc3ccccc3n2)c1 [LA-31 ®, 2,2′-Methylenedi [Bis-2-benzotriazolyl)-4-tert-octylphenol, reference compound] | – | 1510 | 1345 h | – |
| CC(C)(C)CC(C)(C)c1cc(Cc2cc(C(C)(C)CC(C)(C)C)cc(-n3nc4ccccc4n3)c2O)c(O)c(-n2nc3ccccc3n2)c1 [MIXXIM BB/100®, 2,2′-methylenedi{6-(2-benzotriazolyl)-4-tert-octyl-phenol}, reference compound] | 1015 h | – | – | – |
| CCC(C)(C)c1cc(-n2nc3ccccc3n2)c(O)c(C(C)(C)CC)c1 [Tinuvin ® 328, reference compound] | – | – | – | percent gloss retention ([2]; 999 hours exposure): 93%; percent gloss retention ([2]; 1995 hours exposure): 86%; percent gloss retention ([2]; 3900 hours exposure): 43%; percent gloss retention ([2]; 4383 hours exposure): 24%; percent gloss retention ([2]; 4838 hours exposure): 23% |
| CC(C)(c1ccccc1)c1cc(-n2nc3ccccc3n2)c(O)c(C(C)(C)c2ccccc2)c1 [Tinuvin ®-234, 2-(2H-Benzotriazol-2yl)-4,6-bis (α,α-dimethylbenzyl) phenol] | 1023 h | – | 1420 h | – |
| CC(C)(C)CC(C)(C)c1ccc(O)c(-n2nc3ccccc3n2)c1 [UV-5411, 2-(2H-benzotriazol-2-yl)-4-tert-octyl-phenol, reference compound] | 1170 h | >2500 | 1592 h | – |
